The values that follow come from PubChem BioAssay AID434955 (Southern Research Specialized Biocontainment Screening …, 2010).

The other results are listed elsewhere or left out.

A short description of this assay: beta-lactam sensitization of Mtb H37Rv, H37Rv (AID 434955).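 Also: growth measured after seven days incubation then overnight dye step; 0% = bacteria only wells and 100% = bacteria with antibiotic.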 The following applies: M. tuberculosis H37Rv growth with meropenem, percent inhibition; measured here: primary screen without meropenem; at 25 µM.
One may read the inhibition as the share of the control response that was lost under treatment. Regarding `Nc1ccc([As](=O)(O)c2ccc(N)cc2)cc1`, the inhibition was 1.59%. The same measure for `Nc1ccc([As](=O)(O)c2ccc([N+](=O)[O-])cc2)cc1`: 4.13%; for `O=[As](O)(c1ccc(O)cc1)c1ccccc1O`: 4.69%.

On to `CCOC(=O)Nc1ccc([As](=O)(O)O)c(O)c1`, for which the inhibition was determined as 8.63%.
